Values quoted from earlier work as cited in US20240127967A1.
pIC50: −log10 of the molar value.

Columns and labels:
[1] = test system: EBOV/Mak; settings: read-out: IC50 (Huh7); cited from earlier work
[2] = test system: EBOV; settings: read-out: IC50 (HepG2); cited from earlier work

Compound	pIC50 [1]	pIC50 [2]
O=C1CCc2ccc(OCCCCN3CCN(c4cccc(Cl)c4Cl)CC3)cc2N1 [Aripiprazole]	5.11	5.42
CCN(CC)CCOc1ccc(C(=C(Cl)c2ccccc2)c2ccccc2)cc1 [Clomiphene]	5.71	6.12
